Some of these results come from one statement about several compounds together. Some compounds share one range, which may span the group rather than tell each member.
Experiments:
Xac306 biofilm formation = test: Static biofilm formation assay in 96-well polystyrene plates with crystal violet staining; format: cell-based, Xanthomonas citri subsp. citri; settings: D-amino acids 10 mM, indole derivatives 100 μg/mL; NB, 28° C., 48 h, 96-well plates
Procedure: A static biofilm formation assay in 96-well polystyrene plates coupled with CV staining was performed as previously reported with modifications (Li and Wang, 2011). Briefly, a 96-well polystyrene plate (Nunclon surface, Nuncbrand, Denmark) was prepared with 170 μL NB plus 1.0% glucose per well. Aliquots of 20 μL each of the different concentrations of the tested compound were pipetted into eight wells containing 170 μL of NB plus 1.0% glucose. To each of these wells was added 10 μL of the standardized overnight Xac 306 culture (OD600=1.0). Control wells contained NB plus 1.0% glucose and SDW or 0.1% DMSO as a sterility control, or standardized overnight Xac 306 culture as a growth control. The plate was covered by a MicroWell lid (Nunclon), sealed with parafilm to prevent evaporation and incubated at 28° C. for 48 h without shaking. After incubation, the planktonic growth was measured at OD600. To quantify the amount of biofilms formed on the surfaces of the wells, the culture was removed from the wells. After drying, the wells were washed twice with 200 μl of SDW for 5 min, allowed to dry then 200 μl of 0.1% CV added. After 30 minutes, the CV was removed. The wells were washed with excess SDW to remove unbound CV and air dried in an inverted position for 2 h. Afterward, 200 μl of 95% ethanol was added to the wells and incubated for 30 min at room temperature to elute bound CV. The eluted CV was 2-fold diluted in double distilled water and the absorbance at 590 nm was measured. Each data point was averaged from eight replicate wells.

[1] = test system: Xac 306 on grapefruit leaves; test: Plant test in greenhouse, spray inoculation of grapefruit leaves; format: in vivo, Xanthomonas citri subsp. citri; settings: alone or in combination; grapefruit leaves after spray inoculation
Procedure: The effect of selected biofilm inhibitors on Xac infection/virulence-was investigated using 20-week-old potted grapefruit (Citrus paradise cv. Duncan grapefruit) plants in a quarantine greenhouse at the Citrus Research and Education Center, Lake Alfred, Fla. Copper (CuSO4, 100 μg/mL), D-leucine (10 mM), IAN (100 μg/mL) and a combination of these compounds were individually prepared in 100 ml of SDW. Bacterial inoculum was prepared by growing Xac 306 on NA plates at 28° C. for 48 h, suspending in SDW, adjusting concentration to approximately OD600=0.3 (5×10^8 CFU/mL). The inoculation was performed by a spray method as described previously (Li and Wang, 2012) with modifications. Briefly, the abaxial surfaces of fully expanded, immature leaves of each plant were sprayed with the following treatments: SDW, Xac 306, and Xac 306 combined with CuSO4 (100 μg/mL), D-leucine (10 mM), IAN (100 μg/mL), or a combination of these compounds. Silwett-L77 (silicone-polyether copolymer, Fisher) was added to each treatment at a 0.03% (V/V) final concentration. […]
For bacterial population assays, the leaves of grapefruit plants were inoculated as described above. […] After incubation at 28° C. for 48 h, bacterial colonies were counted and the number of CFU per square centimeter of leaf tissue was calculated. […]

| SMILES | reduction of Xac306 biofilm formation (Xac306 biofilm formation) [%] | decrease in CFU/mm^2 leaf tissue compared to untreated control [1] [fold] |
| --- | --- | --- |
| CC(C)C[C@@H](N)C(=O)O [D-leucine] | 55 to 70 |  |
| N[C@H](CO)C(=O)O [D-serine] | 55 to 70 |  |
| N#CCc1c[nH]c2ccccc12 [IAN, 3-indolylacetonitrile] | 55 to 70 | 10 to 100 |
